{"source": "patent US11987807B2", "about": "“Isolated human lung progenitor cells and uses thereof” (THE GENERAL HOSPITAL CORPORATION, priority 2012, dated 2024)", "key": {"[1]": {"system": "mouse ESC-derived endoderm / anterior foregut endoderm cells", "description": "Dorsomorphin inhibits BMP signaling through the SMAD pathway while PD98059 inhibits MAPK signaling.\nA recent report described a monolayer-based strategy using synergistic activation of Nodal and Wnt-β-catenin signaling as well as staged BMP4 inhibition to direct mouse ES cells towards an endoderm fate with high efficiency (Sherwood et al., 2011). This technology was adapted herein to generate definitive endoderm (DE) from mouse ES cells. […] Snoeck and colleagues reported that Noggin (a BMP inhibitor) synergized with SB431542 (a TGFβ inhibitor) to suppress a posterior endoderm fate (Cdx2+) in favor of an anterior endoderm fate (Sox2+) (Green et al., 2011). […] Endoderm was treated with combinations of Activin (a TGFβ agonist), A-83-01 (a TGFβ antagonist), BMP4, and Dorsomorphin (a BMP4 antagonist) for 2 days (FIG. 2B). The number of FoxA2+Sox2+ anterior endoderm cells was compared to the total number of FoxA2+ endoderm cells (FIG. 2B). The treated cells were further exposed to the BMP4/FGF2/WNT agonist cocktail for another 2 days to examine their competence to generate Nkx2.1+ cells (FIG. 2B). […] It was tested if their inhibition would enhance anteriorization together with a TGFβ inhibitor.\nThe expression of lung and other anterior cell fate lineage genes including FoxN1 (thymus), Pax8 (thyroid), and Pax9 and Tbx1 (pharyngeal pouch endoderm) was analyzed by real-time qPCR (Figure S4A). […]"}, "[2]": {"system": "mouse ES cell-derived definitive endoderm", "assay": "Anteriorization of mouse ESC-derived definitive endoderm to FoxA2+Sox2+ anterior foregut endoderm", "format": "cell-based", "settings": "treatment of definitive endoderm at the anteriorization step"}, "[3]": {"system": "mouse ESC-derived Nkx2.1+ cells", "assay": "Generation of proximal airway progenitors from mouse ESC-derived Nkx2.1+ lung endoderm cells", "format": "cell-based", "settings": "individual factors removed or replaced in proximal induction medium", "protocol": "Mouse Endoderm Anteriorization and Nkx2.1 Cell Differentiation: Mouse definitive endoderm was generated as described herein. To anteriorize endoderm, on and after day 5, the cells were split and re-seeded on to the plates pre-coated with 804G-conditioned medium and fed with DO medium+0.5-1 μM A8301 (CalBiochem, 616454) for 2 days."}}, "note": "At least one compound was matched to its structure with a doubt left.", "data": [{"smiles": "c1cc(-c2cnn3cc(-c4ccc(OCCN5CCCCC5)cc4)cnc23)ccn1", "note": "[Dorsomorphin]", "values": [{"measurement": "effect on generation of Nkx2.1+ cells", "setting": "[1]; added to BMP4 induction (pSmad1/5/8 or MAPKK/ERK inhibition)", "value": "completely abrogated generation of Nkx2.1+ cells"}, {"measurement": "effect on Nkx2.1+ cells", "setting": "[1]; treatment at the anteriorization step, then BMP4/FGF2/WNT agonist cocktail 2 days", "value": "slightly lower percentages of Nkx2.1+ cells"}, {"measurement": "effect on FoxA2+Sox2+ cells", "setting": "[2]", "value": "not required for the generation of FoxA2+Sox2+ cells"}, {"measurement": "effect on Nkx2.1+Sox2+ cell production", "setting": "[3]", "value": "little effect"}]}]}
